Experimental data published in article PMC12647621, “A de novo missense variant in MIDEAS results in increased deacetylase activity of the MiDAC HDAC complex causing a neurodevelopmental syndrome” (Nature Communications, 2025).
Changes are numbered by the printed parent chain. Results are given in words; binding and its absence hold for the method and conditions named. Binding seen in cells or lysates may run through a third protein. Some entries that bind do so weakly or less than the wild type.

Protein sequences, listed by entry. Tags and fused reporters are not part of them.
UniProt Q13547: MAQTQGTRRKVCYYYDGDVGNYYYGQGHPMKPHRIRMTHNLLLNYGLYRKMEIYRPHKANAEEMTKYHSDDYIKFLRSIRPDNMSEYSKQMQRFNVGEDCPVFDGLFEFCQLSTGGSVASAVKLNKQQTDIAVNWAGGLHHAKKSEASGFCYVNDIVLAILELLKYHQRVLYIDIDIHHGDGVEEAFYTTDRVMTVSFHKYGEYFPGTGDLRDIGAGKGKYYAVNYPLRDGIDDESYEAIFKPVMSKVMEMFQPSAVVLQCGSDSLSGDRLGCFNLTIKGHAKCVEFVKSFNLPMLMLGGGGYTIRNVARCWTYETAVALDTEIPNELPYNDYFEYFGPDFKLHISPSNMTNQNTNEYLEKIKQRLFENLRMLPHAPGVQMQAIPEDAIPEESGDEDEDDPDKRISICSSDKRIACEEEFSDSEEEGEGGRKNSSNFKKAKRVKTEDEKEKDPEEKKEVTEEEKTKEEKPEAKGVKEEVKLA

What was measured:
Assay in all cases: co-IP; co-purification: 10xHis-3xFLAG-MIDEAS constructs co-expressed with DNTTIP1 and HDAC1 in HEK293F, lysate bound to anti-FLAG resin, washed, released by TEV protease, Superdex-200 gel filtration; HDAC1 in the complex shown by its deacetylase activity
[1] = target: T1, MIDEAS 628-887 Y654S T655A (SAP) (human) (UniProt Q6PJG2)
T1 sequence: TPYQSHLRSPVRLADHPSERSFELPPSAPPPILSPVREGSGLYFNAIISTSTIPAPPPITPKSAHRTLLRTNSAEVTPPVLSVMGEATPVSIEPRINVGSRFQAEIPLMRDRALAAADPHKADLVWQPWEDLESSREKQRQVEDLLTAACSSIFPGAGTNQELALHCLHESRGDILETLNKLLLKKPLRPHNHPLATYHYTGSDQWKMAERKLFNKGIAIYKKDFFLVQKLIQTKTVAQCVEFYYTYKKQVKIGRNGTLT

[2] = target: T2, MIDEAS 628-887 Y654S T655D (SDP) (human) (UniProt Q6PJG2)
T2 sequence: T1 sequence with A28D

[3] = target: T3, MIDEAS 717-887 (WT) (human) (UniProt Q6PJG2)
T3 sequence: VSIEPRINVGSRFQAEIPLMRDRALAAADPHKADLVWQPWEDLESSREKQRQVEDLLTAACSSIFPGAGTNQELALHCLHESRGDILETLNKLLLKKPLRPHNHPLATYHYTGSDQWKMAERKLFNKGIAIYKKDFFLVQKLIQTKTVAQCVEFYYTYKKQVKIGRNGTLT

- binding [1]: binds
- binding [2]: binds
- binding [3]: binds
Substance: HDAC1 (full-length) (from UniProt Q13547 1-482) (enzyme)
